{"source": "paper PMC7819943", "about": "“Rice protein-binding microarrays: a tool to detect cis-acting elements near promoter regions in rice”", "note": "The list shows a part of the results."}
{"target": "T1, OsSMF1 (Oryza sativa, UniProt Q6ZLB0 1-436)", "T1 sequence": "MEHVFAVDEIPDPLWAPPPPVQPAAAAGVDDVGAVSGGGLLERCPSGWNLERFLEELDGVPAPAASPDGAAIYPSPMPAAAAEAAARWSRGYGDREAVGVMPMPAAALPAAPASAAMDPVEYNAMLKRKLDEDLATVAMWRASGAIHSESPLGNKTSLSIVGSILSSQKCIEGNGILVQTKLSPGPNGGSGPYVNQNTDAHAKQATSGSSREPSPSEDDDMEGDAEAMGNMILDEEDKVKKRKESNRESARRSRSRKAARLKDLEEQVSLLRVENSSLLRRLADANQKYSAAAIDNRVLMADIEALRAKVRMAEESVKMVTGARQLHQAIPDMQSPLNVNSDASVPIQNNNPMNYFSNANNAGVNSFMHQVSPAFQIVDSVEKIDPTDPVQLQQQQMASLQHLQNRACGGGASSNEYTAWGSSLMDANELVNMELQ", "assay": "protein-binding microarray (RPBM); PBS, 2% BSA, 51.3 ng/ul salmon testes DNA, 50 uM zinc acetate, 200 nM TF, 25 C, 1 h; high values mean tight binding", "details": "protein: recombinant; tags: N-terminal polyhistidine and DsRed monomer fusion (pET32a); chain copies: 2; label: CyDye5-dUTP incorporated in the synthesized complementary strand; 3' TTTTT single-stranded linker to array surface; dsDNA, one strand shown", "in_short": "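An Axon 4000B scanner gave the binding signal as per-feature fluorescence intensity in arbitrary units. This followed washing of a custom Agilent array that had been incubated for 1 h at 25 °C with 200 nM protein in PBS, 2% BSA, salmon testes DNA and 50 µM zinc acetate. The proteins were transcription factors fused at the N-terminus to polyhistidine and DsRed, expressed in E. coli BL21-CodonPlus and purified on Ni–NTA.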"}
{"sequence": "TGCCAAATCATCACTCCGGTCTACGTGGCCAGCATATCGCCGGAGTCACCTAGTGCAG", "binding signal": "12500 fluorescence intensity (a.u.)"}
{"sequence": "CTCTACTGTAATTCTTCTAAAGCATCATGTTGTACTAACTCGGAGTCACCTAGTGCAG", "binding signal": "3460 fluorescence intensity (a.u.)"}
{"sequence": "CTTGTGGTGATCTATGTTACACTGTGTCATGCTCTTCTTCCGGAGTCACCTAGTGCAG", "binding signal": "3160 fluorescence intensity (a.u.)"}
{"sequence": "ACACTTGAACTGACTCAGGAACCTTGTTCTATGGCTTGCCCGGAGTCACCTAGTGCAG", "binding signal": "3630 fluorescence intensity (a.u.)"}
{"sequence": "TCTCGGTTGCTTCCTCGCCGTTGTGTGAATGCGCACGTGGCGGAGTCACCTAGTGCAG", "binding signal": "9260 fluorescence intensity (a.u.)"}
{"sequence": "GAGACGCGACGCGAGTGGATGACGTGGCTATGGGTGGGCGCGGAGTCACCTAGTGCAG", "binding signal": "15400 fluorescence intensity (a.u.)"}
{"sequence": "AATATATATCTTGTGTGTCTTTGCAAGTGTCTGCAATTGTCGGAGTCACCTAGTGCAG", "binding signal": "3200 fluorescence intensity (a.u.)"}
{"sequence": "AAGAATTTGAACTCTACCTAGTGCGTGTACTATTATGTCACGGAGTCACCTAGTGCAG", "binding signal": "4180 fluorescence intensity (a.u.)"}
{"sequence": "ATATGGTGCACATGATTACTAGTTTTATTAATACGTGGTACGGAGTCACCTAGTGCAG", "binding signal": "3850 fluorescence intensity (a.u.)"}
{"sequence": "GGTCACAATCACGGAGAGGAAGCGGATAGAAGATGTTGCTCGGAGTCACCTAGTGCAG", "binding signal": "3200 fluorescence intensity (a.u.)"}
{"sequence": "ATACCATTATAAATACTATCTTGTGAGTCAATTACATTGGCGGAGTCACCTAGTGCAG", "binding signal": "3150 fluorescence intensity (a.u.)"}
{"sequence": "TTGGGTTGATATGTTGCTGAATGGTCATTTTCTGGGTTAACGGAGTCACCTAGTGCAG", "binding signal": "3910 fluorescence intensity (a.u.)"}
{"sequence": "CGCCGCCATCTCGCCGCCGCCGCCACCTCACCCAACCAATCGGAGTCACCTAGTGCAG", "binding signal": "7710 fluorescence intensity (a.u.)"}
{"sequence": "TTGTTAAGCAGAGTCTTATATGCTTCATTCTTTATAATAACGGAGTCACCTAGTGCAG", "binding signal": "3350 fluorescence intensity (a.u.)"}
{"sequence": "TTCGCTCGCCACCTCCTCCATTTCGGCCACGCGGACCACCCGGAGTCACCTAGTGCAG", "binding signal": "6300 fluorescence intensity (a.u.)"}
{"sequence": "GCCTATTTCTGTAAATATTTTCGCCGGTATAATATTTATGCGGAGTCACCTAGTGCAG", "binding signal": "3260 fluorescence intensity (a.u.)"}
{"sequence": "TCAGCCACCAAACTCGCAGAATTGTGGCTGTTTTCTTCCTCGGAGTCACCTAGTGCAG", "binding signal": "3460 fluorescence intensity (a.u.)"}
{"sequence": "GTTTATCCGGCGCCTCATCTCCGGTGTGGTCAGACAGCCACGGAGTCACCTAGTGCAG", "binding signal": "3210 fluorescence intensity (a.u.)"}
{"sequence": "CAGGCGCTCGCGGTCGGGGTCGGGGAGGAGGGAGAATCTCCGGAGTCACCTAGTGCAG", "binding signal": "4240 fluorescence intensity (a.u.)"}
{"sequence": "GTCCAAACCCCATTTGACTCGGTCTGCTCGCTGACGTGGCCGGAGTCACCTAGTGCAG", "binding signal": "28800 fluorescence intensity (a.u.)"}
{"sequence": "CAGAACCGCGCACAACGGAGGGCATTTACGTCATTCCACCCGGAGTCACCTAGTGCAG", "binding signal": "3310 fluorescence intensity (a.u.)"}
{"sequence": "CTAGTTCGCCTTCCACGTACGCACTTGGCGTCGTATCTGCCGGAGTCACCTAGTGCAG", "binding signal": "6440 fluorescence intensity (a.u.)"}
{"sequence": "CTCTCGACTGTGACTCTCCCCGTGTTTGGGCCACACGAAACGGAGTCACCTAGTGCAG", "binding signal": "3200 fluorescence intensity (a.u.)"}
{"sequence": "ACTCCCTCGACGGTTTTGGAGGGCGATTTTGCTGACGTGGCGGAGTCACCTAGTGCAG", "binding signal": "47600 fluorescence intensity (a.u.)"}
{"sequence": "GCAAAACCTTACTTTTGTCTACGCTTTTGTGCTTTGTCAGCGGAGTCACCTAGTGCAG", "binding signal": "3930 fluorescence intensity (a.u.)"}
{"sequence": "TTTGAGGCAGAGCATTTAATAAGCTTGCCGTGGACCCGTGCGGAGTCACCTAGTGCAG", "binding signal": "3230 fluorescence intensity (a.u.)"}
{"sequence": "TGCTATGCATATATGGCCGTTGCACGTGGGAATAGACAGTCGGAGTCACCTAGTGCAG", "binding signal": "4120 fluorescence intensity (a.u.)"}
{"sequence": "GCGGCGACGTCCACGCCATCGTGTTCTTCCCCGGCGGGTCCGGAGTCACCTAGTGCAG", "binding signal": "4680 fluorescence intensity (a.u.)"}
{"sequence": "CCTCCGTTTCACAATGTAAGTCATTCTAGCATTTCCCACACGGAGTCACCTAGTGCAG", "binding signal": "32900 fluorescence intensity (a.u.)"}
{"sequence": "AACTCCCGCGATGACCGCGCGCTGACCACGCCTCGCTCTCCGGAGTCACCTAGTGCAG", "binding signal": "3910 fluorescence intensity (a.u.)"}
{"sequence": "GCATCAAAGTAGGGACGATATATATATATATACTCCGACGCGGAGTCACCTAGTGCAG", "binding signal": "3360 fluorescence intensity (a.u.)"}
{"sequence": "TCTCACCTCTTCCCATCTACTCCTACATGCAGACAAGCTGCGGAGTCACCTAGTGCAG", "binding signal": "3850 fluorescence intensity (a.u.)"}
{"sequence": "GAAATGTTGGTGACGGTGGAGGATTTTGTTGTTTTAGTGTCGGAGTCACCTAGTGCAG", "binding signal": "3950 fluorescence intensity (a.u.)"}
{"sequence": "GCCCACACGACAGTAACCCAGGGGACCCACGTGCACCGGGCGGAGTCACCTAGTGCAG", "binding signal": "6150 fluorescence intensity (a.u.)"}
{"sequence": "GTGGAGGAGGAAGAAGCTGACACGACGGAGCAGAGCTCGGCGGAGTCACCTAGTGCAG", "binding signal": "4620 fluorescence intensity (a.u.)"}
{"sequence": "TGTACTCGTCACGTCATATGCTTCGCACCTGTGCAAGCTGCGGAGTCACCTAGTGCAG", "binding signal": "4720 fluorescence intensity (a.u.)"}
{"sequence": "AAATACCATCATGTCAGCTGCAGGTCCTCATCGAGGCCGGCGGAGTCACCTAGTGCAG", "binding signal": "4060 fluorescence intensity (a.u.)"}
{"sequence": "TATGTTCTGTCAAGTCATTGACACATGATATTGTAATGTTCGGAGTCACCTAGTGCAG", "binding signal": "3220 fluorescence intensity (a.u.)"}
{"sequence": "CACTGTACACCTGGATCTCTCGATCGATCCCATATACCAGCGGAGTCACCTAGTGCAG", "binding signal": "3940 fluorescence intensity (a.u.)"}
{"sequence": "AAAAGGGTATAATAGTAGCATTCAAATCATTGATGCACACCGGAGTCACCTAGTGCAG", "binding signal": "3190 fluorescence intensity (a.u.)"}
{"sequence": "CATACACCTTATGATTAGATAAGTATGTGTCACCAGGAATCGGAGTCACCTAGTGCAG", "binding signal": "5240 fluorescence intensity (a.u.)"}
{"sequence": "CTAACATGTGAGCCTGAGGGTGGTATGACTCACATGAAAGCGGAGTCACCTAGTGCAG", "binding signal": "6940 fluorescence intensity (a.u.)"}
